Measurements taken from patent US10993940B2, “Methods of enhancing immune response” (NOVARTIS AG, priority 2016, dated 2021).
Some results were stated once for a whole list of compounds, not compound by compound.

Test system: respiratory tract infections
Assay: Respiratory tract infections during the 6 weeks of study drug treatment
Assay type: in vivo, human
Conditions: BEZ235 10 mg daily; study CBEZ235Y2201
Description: (Top) The percentage of subjects in each cohort who reported having one or more respiratory tract infections during the 6 weeks they were treated with study drug is shown. (Bottom) The percentage of subjects who experienced respiratory tract infections of moderate severity during the 6 weeks they were treated with study drug is shown. No subjects in the study experienced respiratory tract infections that were assessed as severe. The numbers on top of each bar indicate the percent change relative to placebo.
The rate of infections during the 6 weeks subjects were treated with study drug was also examined. The main infections that occurred during the 6 weeks of study drug treatment were respiratory tract infections.

`Cn1c(=O)n(-c2ccc(C(C)(C)C#N)cc2)c2c3cc(-c4cnc5ccccc5c4)ccc3ncc21` [BEZ235, 2-methyl-2-[4-(3-methyl-2-oxo-8-quinolin-3-yl-2,3-dihydro-imidazo[4,5-c]quinolin-1-yl)-phenyl]-propionitrile] was tested, and the “reduction of the incidence of respiratory tract infections during the 6 weeks of study drug treatment” value was 50-60%.
